Experimental data: US20050266442A1, “Immortalized human Tuberous Sclerosis null angiomyolipoma cell and method of use thereof” (priority 2004, published 2005)
For at least one compound, name, drawing or mass did not settle the structure.

Assays:
[1] = test system: embryonic fibroblasts derived from knockout animals; settings: cited from earlier work
[2] = test system: liver hemangiomas in TSC2 knockout mice; settings: cited from earlier work
AML TSC2−/− cell lines = experiment: Rapamycin growth assay (MTS), AML cell lines; assay type: cell-based, human

## CO[C@H]1C[C@@H]2CC[C@@H](C)[C@@](O)(O2)C(=O)C(=O)N2CCCC[C@H]2C(=O)O[C@H]([C@H](C)C[C@@H]2CC[C@@H](O)[C@H](OC)C2)CC(=O)[C@H](C)/C=C(\C)[C@@H](O)[C@@H](OC)C(=O)[C@H](C)C[C@H](C)/C=C/C=C/C=C/1C [rapamycin]
[1]
  growth of embryonic fibroblasts: inhibit growth
[2]
  growth of liver hemangiomas: inhibit growth of liver hemangiomas
AML TSC2−/− cell lines; AML TSC2−/− cell lines
  rapamycin sensitivity (FIG. 3 legend): rapamycin sensitive
AML TSC2−/− cell lines; AML TSC2−/− clones vs TSC2+/+ wildtype lines from the 621 tumor, rapamycin 0.01-1000 nM, 72 hours, MTS
  cell growth (dose response growth assay): differentially inhibited as compared with wildtype lines
AML TSC2−/− cell lines; human AML-derived lines compared with MEFs, 72 hours, MTS
  rapamycin sensitivity of human cell lines relative to rodent cells (MEFs): less sensitive to rapamycin than the rodent cells
